The test concerns the target RNF126 (mouse (endogenous in testis)) (UniProt Q91YL2). Kind of test: co-IP; RNF126-specific antibody on protein A/G magnetic beads, Rnf126+/+ mouse testis lysate (25 mM Tris, 150 mM NaCl, 1 mM EDTA, 1% NP40, pH 7.4), 4 °C overnight; IgG and Rnf126-/- testis lysate as controls; Western blot.

By UniProt entry, the sequences of proteins in these tests, tags left out.
UniProt Q91YL2: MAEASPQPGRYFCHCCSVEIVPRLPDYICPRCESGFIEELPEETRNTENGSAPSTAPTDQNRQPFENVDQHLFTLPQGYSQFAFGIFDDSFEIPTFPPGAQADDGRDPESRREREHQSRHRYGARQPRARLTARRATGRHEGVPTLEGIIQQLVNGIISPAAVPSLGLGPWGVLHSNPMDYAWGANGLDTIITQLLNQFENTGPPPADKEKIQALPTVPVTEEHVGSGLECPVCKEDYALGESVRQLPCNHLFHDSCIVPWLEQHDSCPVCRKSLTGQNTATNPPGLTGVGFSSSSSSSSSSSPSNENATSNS
UniProt Q9Z1R2: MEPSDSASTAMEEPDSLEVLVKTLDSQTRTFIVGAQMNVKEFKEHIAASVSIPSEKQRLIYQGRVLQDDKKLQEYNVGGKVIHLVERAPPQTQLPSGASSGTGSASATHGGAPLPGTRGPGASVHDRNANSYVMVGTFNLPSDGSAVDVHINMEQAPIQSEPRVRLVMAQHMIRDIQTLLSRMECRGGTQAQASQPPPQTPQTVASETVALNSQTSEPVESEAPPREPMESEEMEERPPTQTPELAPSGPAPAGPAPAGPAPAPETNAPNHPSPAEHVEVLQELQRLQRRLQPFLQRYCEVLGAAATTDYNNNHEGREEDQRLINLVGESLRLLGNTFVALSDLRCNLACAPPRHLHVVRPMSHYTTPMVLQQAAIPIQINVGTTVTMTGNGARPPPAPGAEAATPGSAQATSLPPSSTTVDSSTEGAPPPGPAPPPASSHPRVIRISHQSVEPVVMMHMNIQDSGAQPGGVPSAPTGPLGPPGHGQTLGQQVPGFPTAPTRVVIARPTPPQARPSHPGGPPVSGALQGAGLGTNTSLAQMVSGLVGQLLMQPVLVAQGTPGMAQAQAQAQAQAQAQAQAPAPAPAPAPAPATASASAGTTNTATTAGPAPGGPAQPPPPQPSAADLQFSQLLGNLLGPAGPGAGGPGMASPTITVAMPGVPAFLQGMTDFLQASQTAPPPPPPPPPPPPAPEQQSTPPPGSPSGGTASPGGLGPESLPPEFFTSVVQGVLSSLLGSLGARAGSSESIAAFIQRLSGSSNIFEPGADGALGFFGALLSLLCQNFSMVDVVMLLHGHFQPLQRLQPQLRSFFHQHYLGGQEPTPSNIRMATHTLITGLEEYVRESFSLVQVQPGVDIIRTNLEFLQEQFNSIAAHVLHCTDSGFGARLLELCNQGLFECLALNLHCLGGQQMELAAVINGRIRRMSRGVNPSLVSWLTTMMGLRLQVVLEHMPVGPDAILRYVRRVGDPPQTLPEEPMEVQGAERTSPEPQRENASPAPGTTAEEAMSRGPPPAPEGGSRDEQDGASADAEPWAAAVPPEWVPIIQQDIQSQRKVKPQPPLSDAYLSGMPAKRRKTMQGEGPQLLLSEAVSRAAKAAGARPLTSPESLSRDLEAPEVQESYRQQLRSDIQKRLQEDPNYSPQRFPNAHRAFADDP

Results are given in words; binding and its absence hold for the method and conditions named. In cells and extracts the contact can be indirect. Some binding calls cover weakened binding; strength is not graded here.

As to BAG6 (from UniProt Q9Z1R2 1-1154), the binding entry was “binds”.

The record behind these values is publication PMC12102401.
